In patent US20160257968A1:
These are yes or no findings as the source states them, for the method shown. Binding seen in cells or lysates may run through a third protein. Some results given as binding are weak or reduced against the parent protein; the word gives no strength. Sequences can lack the tags named with a protein.

Columns and labels:
Test in all cases: bead-based (Luminex) co-immunoprecipitation from lysate of co-transformed corn leaf protoplasts, complex detected with biotinylated anti-CFP antibody
Zmhdz35 = target: T1, Zmhdz35
T1 sequence (chain, by the resolver, C-terminal CFP fusion, not in the letters): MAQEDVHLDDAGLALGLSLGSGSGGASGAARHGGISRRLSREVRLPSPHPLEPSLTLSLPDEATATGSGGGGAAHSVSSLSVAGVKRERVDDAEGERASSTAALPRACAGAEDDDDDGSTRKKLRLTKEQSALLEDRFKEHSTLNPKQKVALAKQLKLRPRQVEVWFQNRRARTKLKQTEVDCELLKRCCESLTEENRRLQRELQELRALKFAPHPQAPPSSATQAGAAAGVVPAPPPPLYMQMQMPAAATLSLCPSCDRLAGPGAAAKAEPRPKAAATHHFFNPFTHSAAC

Zmhdz25 = target: T2, Zmhdz25
T2 sequence (chain, by the resolver, C-terminal CFP fusion, not carried in the letters): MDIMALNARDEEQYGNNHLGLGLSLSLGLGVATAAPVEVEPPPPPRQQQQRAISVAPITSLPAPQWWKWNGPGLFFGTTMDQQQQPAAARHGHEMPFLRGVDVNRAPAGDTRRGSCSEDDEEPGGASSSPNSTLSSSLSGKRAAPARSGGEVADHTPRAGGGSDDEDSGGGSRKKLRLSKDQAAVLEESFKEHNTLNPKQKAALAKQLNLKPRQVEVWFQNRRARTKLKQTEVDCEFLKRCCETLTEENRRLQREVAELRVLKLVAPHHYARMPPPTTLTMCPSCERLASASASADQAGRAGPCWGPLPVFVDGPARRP

Zmhdz30 = target: T3, Zmhdz30
T3 sequence (chain, by the resolver, C-terminal CFP fusion, not carried in the letters): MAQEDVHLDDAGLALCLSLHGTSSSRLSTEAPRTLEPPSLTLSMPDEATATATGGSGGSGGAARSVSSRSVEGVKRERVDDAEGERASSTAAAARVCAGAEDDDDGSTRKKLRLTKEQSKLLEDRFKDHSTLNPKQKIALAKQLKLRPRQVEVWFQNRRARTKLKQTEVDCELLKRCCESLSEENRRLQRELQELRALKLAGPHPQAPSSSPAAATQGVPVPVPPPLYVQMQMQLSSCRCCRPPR

Zmhdz31 = target: T4, Zmhdz31
T4 sequence (chain, by the resolver, C-terminal CFP fusion, not carried in the letters): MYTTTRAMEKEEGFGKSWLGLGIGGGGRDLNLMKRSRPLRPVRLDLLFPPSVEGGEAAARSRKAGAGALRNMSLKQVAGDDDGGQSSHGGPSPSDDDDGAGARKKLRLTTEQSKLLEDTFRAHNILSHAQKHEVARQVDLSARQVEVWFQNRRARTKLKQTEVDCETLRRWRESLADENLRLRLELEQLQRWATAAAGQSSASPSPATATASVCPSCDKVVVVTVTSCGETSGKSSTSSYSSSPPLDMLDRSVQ

Zmhdz34 = target: T5, Zmhdz34
T5 sequence (chain, by the resolver, C-terminal CFP fusion, not in the letters): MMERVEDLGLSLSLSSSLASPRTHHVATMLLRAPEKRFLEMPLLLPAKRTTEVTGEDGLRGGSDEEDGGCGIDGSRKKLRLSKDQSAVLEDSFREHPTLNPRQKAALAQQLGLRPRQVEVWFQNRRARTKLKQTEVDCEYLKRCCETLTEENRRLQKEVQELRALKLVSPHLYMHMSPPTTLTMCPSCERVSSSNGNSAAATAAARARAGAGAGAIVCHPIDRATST

Zmhdz24 = target: T6, Zmhdz24
T6 sequence (chain, by the resolver, C-terminal CFP fusion, not in the letters): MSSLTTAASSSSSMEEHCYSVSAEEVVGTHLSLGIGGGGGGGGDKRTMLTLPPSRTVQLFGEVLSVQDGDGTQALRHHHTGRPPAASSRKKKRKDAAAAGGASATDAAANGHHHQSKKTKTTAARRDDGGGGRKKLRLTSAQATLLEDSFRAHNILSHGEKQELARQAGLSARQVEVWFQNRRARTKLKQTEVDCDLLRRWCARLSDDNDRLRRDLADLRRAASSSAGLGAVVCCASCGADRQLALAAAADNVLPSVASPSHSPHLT

Zmhdz26 = target: T7, Zmhdz26
T7 sequence (chain, by the resolver, C-terminal CFP fusion, not carried in the letters): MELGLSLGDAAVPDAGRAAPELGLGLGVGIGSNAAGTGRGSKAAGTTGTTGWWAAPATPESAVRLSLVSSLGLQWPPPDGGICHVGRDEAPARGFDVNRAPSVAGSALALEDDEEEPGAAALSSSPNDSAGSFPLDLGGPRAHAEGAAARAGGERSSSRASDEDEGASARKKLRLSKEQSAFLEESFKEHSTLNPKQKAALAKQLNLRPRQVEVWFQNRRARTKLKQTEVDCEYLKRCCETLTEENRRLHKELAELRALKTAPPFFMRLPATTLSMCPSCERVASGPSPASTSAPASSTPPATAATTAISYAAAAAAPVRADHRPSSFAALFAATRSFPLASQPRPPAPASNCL

Zmhdz29 = target: T8, Zmhdz29
T8 sequence (chain, by the resolver, C-terminal CFP fusion, not carried in the letters): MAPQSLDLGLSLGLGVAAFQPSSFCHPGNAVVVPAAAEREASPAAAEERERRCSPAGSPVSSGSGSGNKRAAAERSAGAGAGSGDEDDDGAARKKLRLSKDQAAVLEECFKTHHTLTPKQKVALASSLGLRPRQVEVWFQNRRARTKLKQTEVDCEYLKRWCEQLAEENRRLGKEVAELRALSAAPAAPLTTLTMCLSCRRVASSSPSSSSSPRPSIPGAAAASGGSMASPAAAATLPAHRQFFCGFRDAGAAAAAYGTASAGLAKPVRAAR

Zmhdz21 = target: T9, Zmhdz21
T9 sequence (chain, by the resolver, C-terminal CFP fusion, not in the letters): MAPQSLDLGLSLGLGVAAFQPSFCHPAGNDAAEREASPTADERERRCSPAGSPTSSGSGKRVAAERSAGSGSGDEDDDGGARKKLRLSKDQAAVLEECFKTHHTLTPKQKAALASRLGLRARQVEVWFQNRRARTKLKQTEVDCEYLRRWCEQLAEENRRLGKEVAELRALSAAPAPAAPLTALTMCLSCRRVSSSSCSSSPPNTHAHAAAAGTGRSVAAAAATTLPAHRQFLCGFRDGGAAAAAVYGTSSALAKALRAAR

Zmhdz33 = target: T10, Zmhdz33
T10 sequence (chain, by the resolver, C-terminal CFP fusion, not in the letters): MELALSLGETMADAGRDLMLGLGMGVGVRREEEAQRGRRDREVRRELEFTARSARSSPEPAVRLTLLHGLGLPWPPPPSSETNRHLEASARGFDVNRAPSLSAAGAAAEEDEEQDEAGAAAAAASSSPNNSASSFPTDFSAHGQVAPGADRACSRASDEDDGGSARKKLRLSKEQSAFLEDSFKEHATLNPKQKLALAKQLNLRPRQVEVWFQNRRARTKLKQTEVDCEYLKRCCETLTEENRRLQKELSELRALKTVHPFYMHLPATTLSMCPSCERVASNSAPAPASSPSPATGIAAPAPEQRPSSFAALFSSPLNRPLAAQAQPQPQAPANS

- binding (Zmhdz35): binds
- binding (Zmhdz25): binds
- binding (Zmhdz30): binds
- binding (Zmhdz31): binds
- binding (Zmhdz34): binds
- binding (Zmhdz24): binds
- binding (Zmhdz26): binds
- binding (Zmhdz29): binds
- binding (Zmhdz21): binds
- binding (Zmhdz33): binds
B1: ATHB17Δ113::MYC-HA (C-terminal MYC-HA fusion of ATHB17Δ113) (protein, not shown: small tags and cut ends)
chain: MNRLPSSEDGDDEEFSHDDGSAPPRKKLRLTREQSRLLEDSFRQNHTLNPKQKEVLAKHLMLRPRQIEVWFQNRRARSKLKQTEMECEYLKRWFGSLTEENHRLHREVEELRAIKVGPTTVNSASSLTMCPRCERVTPAASPSRAVVPVPAKKTFPPQERDR
